Assay results published in US10857167B2, “Use of oligosaccharide compositions to enhance weight gain” (Children's Hospital Medical Center, priority 2015, dated 2020).
This continues a long series; more values of the same kind are listed elsewhere.

Test system: distal small bowel gene expression
Experiment: RNA sequencing / transcriptional analysis of small bowel 56 days after ICR (2′-FL signature response)
Format: in vivo, mouse
Description: Luminal small bowel contents were expressed into AllProtect Tissue Reagent (Qiagen Inc, CA). Bacterial DNA was extracted using the AllPrep DNA/RNA Mini Kit (Qiagen Inc, CA), according to kit instructions and prior to sequencing (described below). Small bowel tissue samples for RNA were placed into RNA Later (Life Technologies, NY). RNA extraction was accomplished following Qiagen RNeasy Plus Kit instruction (Qiagen Inc, CA). All nucleic acid samples were then stored at -80 Celsius until sequenced (described below). Transcriptional analysis was carried out on resected and harvested small bowel samples obtained from operated mice taken to 8 weeks. Murine RNA sequencing libraries were prepared from approximately 1.5 μg RNA using the TruSeq RNA Sample Preparation Kit (Illumina, Calif.) and sequenced using the HiSeq 2000 Sequencing System (Illumina, Calif.) with single-end 50 bp reads. Following removal of primers and barcodes, sequences were aligned to the mm10 genome using reference annotations from UCSC (Rosenbloom et al. (2015) Nucleic acids research 43: […]-681) (n=36,186 entities). Aligned reads were quantified and used to compute reads per kilobase per million mapped reads (RPKM); raw counts were then normalized using the DESeq algorithm and each harvested sample was baselined to its own resected sample. A filter was applied to the data, requiring at least three reads in all samples of at least one of the four experimental conditions (n=14,489 entities). The data discussed in this publication have been deposited in NCBI's Gene Expression Omnibus and are accessible through NCBI Gene Expression Omnibus (GEO) Series accession number GSE72590. Edgar et al. (2002) Nucleic acids research 30: 207-210. In order to characterize the impact of 2'-FL supplementation while accounting for the effect of ileoecal resection, a t-test was applied between resected and harvested samples within control and experimental animals. Significance was set at a p-value of ≤0.05 and a fold change of 3, which generated 2,576 differentially regulated entities across two comparisons. Gene set unions and intersections of the control and experimental gene sets were identified through Venn diagrams. From the master list, the gene list specific to animals supplemented with 2'-FL were removed in order to identify genes differentially regulated only by ICR (n=546 entities); this gene set characterizes the adaptive response. Further, the 2'-FL response (n=2,030 entities) was identified by removing the adaptive response signature described above from the master list, leaving only genes regulated by 2'-FL supplementation after ICR which were not found in the non-supplemented adaptive response. Heatmaps were generated using hierarchical clustering with the Pearson's Centered distance metric and the average linkage rule; both entities and samples were clustered. All genomic analyses described above were performed in Strand NGS (Strand Life Sciences, CA). Gene list functional enrichment was initially discovered using ToppFun, a member of the ToppGene Suite. Chen et al. (2009) Nucleic acids research 37: […]-311. No statistical correction was selected. Gene lists were further analyzed using ClueGO, a plugin for Cytoscape designed to decipher functionally grouped gene ontology and pathway annotation networks. Bindea et al. (2009) Bioinformatics 25: 1091-1093. At the time of data analysis, the annotation files were updated from sources to Jan. 1, 2015. “GO Term Fusion” was enabled to manage ontologic term redundancy and network specificity was set to medium. Results were restricted to pathways with p≤0.05 using Benjamini-Hochberg correction and Kappa scoring was set to 0.4. Biocyc annotations were assigned a rectangle, gene ontology biologic processes were assigned an ellipse, and […] annotations were assigned a diamond shape. No meaning was assigned to size or color. […]

## C[C@@H]1O[C@@H](O[C@H]2[C@H](O[C@H]3[C@H](O)[C@@H](O)C(O)O[C@@H]3CO)O[C@H](CO)[C@H](O)[C@@H]2O)[C@@H](O)[C@H](O)[C@@H]1O (stereo partly drawn) [2′-FL, 2′-fucosyllactose]
Gene Helz
  Fold Change (Pre- to Post-op): −5.696
Gene Hhatl
  Fold Change (Pre- to Post-op): −3.096
Gene Hip1
  Fold Change (Pre- to Post-op): −4.943
Gene Hipk2
  Fold Change (Pre- to Post-op): −3.567
Gene Hivep1
  Fold Change (Pre- to Post-op): −3.83
Gene Hk1
  Fold Change (Pre- to Post-op): −6.773
Gene Hnf1a
  Fold Change (Pre- to Post-op): −3.666
Gene Hnrnpul1
  Fold Change (Pre- to Post-op): −3.801
Gene Hoxa5
  Fold Change (Pre- to Post-op): −4.596
Gene Hoxb5
  Fold Change (Pre- to Post-op): −6.299
Gene Hoxc6
  Fold Change (Pre- to Post-op): −4.595
Gene Hpcal4
  Fold Change (Pre- to Post-op): −3.525
Gene Hpn
  Fold Change (Pre- to Post-op): −4.768
Gene Hr
  Fold Change (Pre- to Post-op): −6.939
Gene Hs6st1
  Fold Change (Pre- to Post-op): −3.204
Gene Hspg2
  Fold Change (Pre- to Post-op): −3.323
Gene Hyal1
  Fold Change (Pre- to Post-op): −6.874
Gene Iffo2
  Fold Change (Pre- to Post-op): −3.093
Gene Ift122
  Fold Change (Pre- to Post-op): −5.863
Gene Igdcc4
  Fold Change (Pre- to Post-op): −5.775
Gene Igf2bp2
  Fold Change (Pre- to Post-op): −3.107
Gene Igfbp5
  Fold Change (Pre- to Post-op): −5.849
Gene Igsf9b
  Fold Change (Pre- to Post-op): −3.26
Gene Ikzf2
  Fold Change (Pre- to Post-op): −3.472
Gene Il2ra
  Fold Change (Pre- to Post-op): −3.155
Gene Il2rg
  Fold Change (Pre- to Post-op): −3.037
Gene Il7r
  Fold Change (Pre- to Post-op): −7.867
Gene Il12rb2
  Fold Change (Pre- to Post-op): −5.847
Gene Il17rd
  Fold Change (Pre- to Post-op): −8.947
Gene Il17re
  Fold Change (Pre- to Post-op): −3.161
Gene Il27ra
  Fold Change (Pre- to Post-op): −7.023
Gene Ino80
  Fold Change (Pre- to Post-op): −3.382
Gene Inpp5d
  Fold Change (Pre- to Post-op): −6.062
Gene Insm1
  Fold Change (Pre- to Post-op): −3.091
Gene Ints1
  Fold Change (Pre- to Post-op): −3.204
Gene Ints9
  Fold Change (Pre- to Post-op): −3.326
Gene Ipo9
  Fold Change (Pre- to Post-op): −3.306
Gene Iqgap3
  Fold Change (Pre- to Post-op): −4.188
Gene Iqsec1
  Fold Change (Pre- to Post-op): −8.357
Gene Iqsec2
  Fold Change (Pre- to Post-op): −3.43
Gene Irak3
  Fold Change (Pre- to Post-op): −3.099
Gene Irf2bp1
  Fold Change (Pre- to Post-op): −3.804
Gene Irgq
  Fold Change (Pre- to Post-op): −4.847
Gene Irs1
  Fold Change (Pre- to Post-op): −3.722
Gene Itga2
  Fold Change (Pre- to Post-op): −7.892
Gene Itga4
  Fold Change (Pre- to Post-op): −3.78
Gene Itga9
  Fold Change (Pre- to Post-op): −3.569
Gene Itga11
  Fold Change (Pre- to Post-op): −4.037
Gene Itgal
  Fold Change (Pre- to Post-op): −4.124
Gene Itgax
  Fold Change (Pre- to Post-op): −4.359
Gene Itgb3
  Fold Change (Pre- to Post-op): −3.231
Gene Itgb4
  Fold Change (Pre- to Post-op): −4.769
Gene Itgb7
  Fold Change (Pre- to Post-op): −3.042
Gene Itih5
  Fold Change (Pre- to Post-op): −4.018
Gene Itpkb
  Fold Change (Pre- to Post-op): −7.106
Gene Itsn1
  Fold Change (Pre- to Post-op): −3.095
Gene Jade2
  Fold Change (Pre- to Post-op): −5.906
Gene Jag2
  Fold Change (Pre- to Post-op): −6.528
Gene Jak3
  Fold Change (Pre- to Post-op): −3.992
Gene Jph4
  Fold Change (Pre- to Post-op): −3.309
Gene Jup
  Fold Change (Pre- to Post-op): −5.015
Gene Kank2
  Fold Change (Pre- to Post-op): −3.708
Gene Kat6a
  Fold Change (Pre- to Post-op): −3.614
Gene Kat6b
  Fold Change (Pre- to Post-op): −4.178
Gene Kcna1
  Fold Change (Pre- to Post-op): −6.664
Gene Kcna5
  Fold Change (Pre- to Post-op): −3.192
Gene Kcna6
  Fold Change (Pre- to Post-op): −6.135
Gene Kcnb1
  Fold Change (Pre- to Post-op): −5.01
Gene Kcnc1
  Fold Change (Pre- to Post-op): −3.997
Gene Kcnc3
  Fold Change (Pre- to Post-op): −6.358
Gene Kcnd3
  Fold Change (Pre- to Post-op): −5.102
Gene Kcnh3
  Fold Change (Pre- to Post-op): −3.024
Gene Kcnj10
  Fold Change (Pre- to Post-op): −5.742
Gene Kcnk3
  Fold Change (Pre- to Post-op): −9.12
Gene Kcnn3
  Fold Change (Pre- to Post-op): −3.74
Gene Kcnq1ot1
  Fold Change (Pre- to Post-op): −3.128
Gene Kdm2a
  Fold Change (Pre- to Post-op): −4.102
Gene Kdm5c
  Fold Change (Pre- to Post-op): −3.378
Gene Kdm6b
  Fold Change (Pre- to Post-op): −7.911
Gene Kdr
  Fold Change (Pre- to Post-op): −4.468
Gene Khsrp
  Fold Change (Pre- to Post-op): −5.078
Gene Kif12
  Fold Change (Pre- to Post-op): −3.056
Gene Kif13a
  Fold Change (Pre- to Post-op): −4.6449
Gene Kif13b
  Fold Change (Pre- to Post-op): −7.773
Gene Kif18b
  Fold Change (Pre- to Post-op): −3.088
Gene Kif21b
  Fold Change (Pre- to Post-op): −6.902
Gene Kif26a
  Fold Change (Pre- to Post-op): −8.286
Gene Kif26b
  Fold Change (Pre- to Post-op): −4.107
Gene Kirrel
  Fold Change (Pre- to Post-op): −4.23
Gene Kit
  Fold Change (Pre- to Post-op): −3.147
Gene Klf3
  Fold Change (Pre- to Post-op): −3.185
Gene Klf5
  Fold Change (Pre- to Post-op): −3.927
Gene Klf9
  Fold Change (Pre- to Post-op): −4.918
Gene Klf13
  Fold Change (Pre- to Post-op): −4.84
Gene Klhdc7a
  Fold Change (Pre- to Post-op): −6.609
Gene Kmt2a
  Fold Change (Pre- to Post-op): −5.355
Gene Kmt2b
  Fold Change (Pre- to Post-op): −3.555
Gene Kmt2e
  Fold Change (Pre- to Post-op): −4.198
Gene Kmt2d
  Fold Change (Pre- to Post-op): −5.674
Gene Kri1
  Fold Change (Pre- to Post-op): −4.889
Gene Ksr1
  Fold Change (Pre- to Post-op): −5.703
Gene L1cam
  Fold Change (Pre- to Post-op): −7.3658
Gene L3mbtl3
  Fold Change (Pre- to Post-op): −4.906
Gene LOC100503956
  Fold Change (Pre- to Post-op): −4.188
Gene LOC101055680
  Fold Change (Pre- to Post-op): −4.569
Gene LOC101056227
  Fold Change (Pre- to Post-op): −4.596
Gene Lama5
  Fold Change (Pre- to Post-op): −4.931
Gene Lamc1
  Fold Change (Pre- to Post-op): −4.219
Gene Lamc3
  Fold Change (Pre- to Post-op): −4.055
Gene Laptm5
  Fold Change (Pre- to Post-op): −5.278
Gene Larp1
  Fold Change (Pre- to Post-op): −4.205
Gene Lcor
  Fold Change (Pre- to Post-op): −4.132
Gene Lcp1
  Fold Change (Pre- to Post-op): −3.704
Gene Lct
  Fold Change (Pre- to Post-op): −3.244
Gene Lect2
  Fold Change (Pre- to Post-op): −9.259
Gene Lhfpl4
  Fold Change (Pre- to Post-op): −3.865
Gene Lhx6
  Fold Change (Pre- to Post-op): −4.02
Gene Limch1
  Fold Change (Pre- to Post-op): −4.33
Gene Llgl1
  Fold Change (Pre- to Post-op): −3.072
Gene Lmf2
  Fold Change (Pre- to Post-op): −3.353
